Library screen at single concentrations

From ChEMBL document CHEMBL3988442, “University of Dundee, Small-Polar-MMV Screening Library” (2021).

Mtb cholesterol medium: 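Whole-cell growth test on Mycobacterium tuberculosis, read after 4 days in a medium based on cholesterol and the lipid DPPC; the read-out is not stated. Concentration: 50 µM. Higher reads as more growth inhibition (inferred: compounds with an IC50 in retests scored well above the rest). Of about 69,000 compounds tested this way, about 370 (0.54%) reached 50% or more in at least one test.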
Mtb glucose medium: 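Growth of Mycobacterium tuberculosis over 3 days (7H9 medium with glucose and tyloxapol); the read-out is not stated. Compounds at 50 µM. Direction is inferred from retests: higher values go with more growth inhibition. Of about 69,000 compounds tested this way, about 760 (1.1%) reached 50% or more in at least one test.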

Values are the deposited “Percent Effect”, in %. How 0% and 100% were set is not recorded. Most values in the screen are low, and negative values occur. This is an unselected part of the compounds tested. Two or more numbers in one place are separate tests of the same structure; such repeats can differ widely.

SMILES,Mtb cholesterol medium,Mtb glucose medium
CC1CCN(CCNC(=O)C2CCN(S(N)(=O)=O)CC2)CC1,-12,-14.1 and -11.5
Cc1cc(CNC(=O)CCCN2CCCCC2)n(C)n1,-4.031,-6.139 and -5.172
NC(=O)CN1CC(O)c2ccccc2S1(=O)=O (centres unmarked),13.75,16.87
CN(Cc1ccccc1)c1ncccc1CNC1CCC1,1.438,-15.29
CC(=O)N1CCc2cc(Cl)cc(Cl)c2C1,2.286,13.29
CNC(=O)NCC1CCC2(CCN(C(=O)c3cccnc3)CC2)CO1.O=C(O)C(F)(F)F (centres unmarked),7.467,29.24
COc1ccccc1C1CNC(=O)c2nc(-c3ncc[nH]3)[nH]c2C1 (centres unmarked),17.94,8.378
O=C(c1cc(C2CC2)on1)N1CCCC(n2cncn2)C1 (centres unmarked),-6.878,-26.78
COc1c(CNC2CCN(c3ncccn3)CC2)c(C(C)C)nn1C,-22.92,-7.628
CC(Cn1cccn1)NC(=O)NCc1ccc(S(C)(=O)=O)cc1 (centres unmarked),-10.83,-22.01
O=C(Cc1ccsc1)N1Cc2nc(CN3CCCCC3)oc2C1.O=C(O)C(F)(F)F,-2.818,17
COc1nccnc1N1CCN(Cc2cccc(C)c2)C(=O)C1,-5.953,3.548 and -0.287
CC(C)CN(CC(O)c1ccccc1)C(=O)NC(C)C (centres unmarked),-5.153,-1.362
Cc1cc(F)ccc1OC1(C(=O)O)CCN(Cc2ccncc2)CC1,9.574,27.23
O=C(NC[C@]1(O)CN(Cc2ccccc2F)C[C@H]1O)c1ccccn1,-10.08,2.711
CC(=O)NCc1cc(-c2cccs2)n(C2CCCC2)n1,-10.87,-31.49
CN(CCc1cccs1)C1CCCN(Cc2noc(C3CC3)n2)C1 (centres unmarked),50.75,-12.16 and 1.885
Cn1cc(C#N)cc1C(=O)Nc1ccc(CN2CCOCC2)cn1,-2.469,-1.893 and 12.38
COC(=O)C1CCCCN1C(=O)c1cn(C/C=C/c2ccccc2)nn1 (centres unmarked),12.74,1.655
COCCN1CCC2(CC1)CN(C(=O)c1cccs1)CCO2.O=C(O)C(F)(F)F,-47.27,-60.11
Cc1ccc(CNC(=O)NC2CCC(O)CC2)c(N2CCCC2)c1 (centres unmarked),12.37,-20.22 and 12.97
O=C(c1cc[nH]n1)N(Cc1ccc(F)cc1)CC1CC1,9.531,8.166
CCn1cnnc1C1CCN(C(=O)c2cnc3ccccc3n2)CC1,-7.869,-5.716 and 32.51
[H][C@]12CCN(S(C)(=O)=O)[C@@]1([H])C[C@@H](C(=O)Nc1nc(C)cs1)O2,14.61,12.83
Cc1noc(-c2cnc(NC3CC3)nc2-c2ccco2)c1C,31.59 and 20.91,28.96
CCN1CCC2(CC1)CC(NCc1cccs1)c1ccccc1O2.O=C(O)C(F)(F)F.O=C(O)C(F)(F)F (centres unmarked),-31.56,-10.51
O=C(c1cc(Br)c[nH]1)N1CCN(Cc2ccco2)CC1,15.25,0.7697
Cc1cc2n(n1)CC(CNCc1ccc(-n3cccn3)cc1)CN2 (centres unmarked),4.479,4.612
Cc1occc1C(=O)N1CCCS1(=O)=O,0.9503,38.22
CC(C)NC(=O)Nc1cccc2c1CCN(S(C)(=O)=O)C2,-11.92 and -9.286,-1.918
COCCO[C@H]1CCN(c2cc(OC)ncn2)[C@H]1Cc1ccncc1,-14.79,2.465 and 28.31
O=C(CN1CCSC2(CCCCC2)C1)NCC(F)(F)F,17.49,29.01
COc1cccc(S(=O)(=O)NC(=O)C2CC(c3ccccc3)=NO2)c1 (centres unmarked),2.38,0.3986 and -9.212
CC(Cn1ccnc1)NCc1n[nH]c2c1CCC2 (centres unmarked),3.727,-13.36 and -7.348
CCN(CC)C1CCN(C(=O)NCc2c(C)noc2C)CC1,-19.58,-11.65
Cc1c(NCCCOc2cccc(C#N)c2)cccc1C(N)=O,18.87,29.47
COCCCNC(=O)c1ccn(-c2ccc3ccccn23)n1,-26.24,-46.38
O=C1NC2(CCN(C/C=C/c3ccccc3)CC2)CC1c1ccccc1 (centres unmarked),8.423,-14.02
Cc1ccccc1C1CCCN1Cc1ccc(S(=O)(=O)N(C)C)o1 (centres unmarked),4.583,14.14
CC(=O)N1CCC(c2cccc(NC3CCOCC3)n2)CC1,16.82,2.084
CN1CCC(NC(=O)Nc2ccc(Br)c(F)c2)C1=O (centres unmarked),2.611,-16.93
CCOCCCNC(=O)Nc1ccc(F)c(C(N)=O)c1,-17.73,-0.9342
O=C(O)C(F)(F)F.O=C(O)C(F)(F)F.[H][C@]12C[C@H](C(=O)NC)N(C(C)C)[C@@]1([H])CN(C(=O)c1ccc(C)nc1)C2,-33.24,-28.07
Nc1nccc(C2CCN(c3cnccn3)C2)n1 (centres unmarked),-6.418 and 6.574,-1.697
COc1cc(C(=O)N2CCCC(n3ccnc3)C2)cc2c1OCCO2 (centres unmarked),9.349,0.2847
CNc1nc(CNC(=O)Nc2cccc(Cl)c2OC)cs1,18.01,4.254
CCC[C@H]1CN(CCOC)C[C@@H]1NC(=O)Cn1cc(C)cn1,-37.65,4.576
C[C@@H](NCc1cccc(Cl)c1)c1onc(-c2ccc(F)cc2)c1C(=O)O.Cl,-10.44,-6.576 and -7.02
O=C(O)C(F)(F)F.[H][C@]12C[C@@H](CN(C)C)N(C(C)=O)[C@@]1([H])CCN(C(=O)c1ccno1)C2,9.877,8.104
Cc1nc(CN2CCc3ncnc(-c4ccncc4)c3CC2)cs1.O=C(O)C(F)(F)F.O=C(O)C(F)(F)F,-27.48,-20.52
COc1ccc(CCNC(=O)C(C)Nc2cccc(C)c2C)cc1 (centres unmarked),-18.87,-2.18
CC(C)(C#N)c1ccc(NS(=O)(=O)CC2CCCCO2)cc1 (centres unmarked),10.27,-12.37
O=C(O)c1cccc(CC2CCN(c3ncccn3)CC2)c1,-15.52 and -10.02,-26.26 and -7.918
Cc1noc(CN(C)CC(c2cccs2)N2CCOCC2)n1 (centres unmarked),-11.71,-4.267 and -20.08
COCCN1CCC(CNC(=O)C2(c3ccccc3)CCOCC2)C1 (centres unmarked),4.37,-0.6806
Cc1ccc(S(=O)(=O)N2CCN(Cc3ccncc3)CC2)c(Cl)c1,-7.412,-3.127
[H][C@@]12CCN(C[C@@H]1CC)[C@@H](CNC(=O)Nc1ccc(Br)cc1)C2,6.809,3.173 and -19.47
Cc1nc(NCc2cccnc2)cc(C2COCCN2)n1 (centres unmarked),-11.28 and -8.356,-20.88
CC(C)(C)c1cc(NC(=O)CNC2CCc3ncnn3C2)on1 (centres unmarked),2.111,-12.29 and -1.288
CSc1ccc(C(C(=O)O)N2CCC(C(=O)N3CCCC3)CC2)cc1 (centres unmarked),10.95,-15.22
Cl.O=C(c1cccnc1N1CCN(CCO)CC1)N1CCCC1,22.73,9.13
Cc1ccoc1C(=O)NCCOc1ccc(C(F)(F)F)cn1,-14.45,-1.779
CCN(CC(=O)NC(C)C)C(=O)C(C)(C)c1ccc2c(c1)OCCO2,-17.37,-4.103
Cc1cc(=O)[nH]c(SCC(=O)N(C)CC2Cc3ccccc3CN2C)n1 (centres unmarked),2.958,18.78
CCOCC1CC2(CCN(C(=O)c3ccc4ccccc4n3)CC2)CO1.O=C(O)C(F)(F)F (centres unmarked),-15.78,-9.932
[H][C@@]12CN(Cc3cccc(C)n3)C[C@]1([H])N(CCCN1CCOCC1)C(=O)O2,-17.08,0.6507
COc1ccccc1NCC(=O)Nc1cnn(Cc2ccccn2)c1,-6.812,8.678 and -3.752
COc1cccc2c1OCCCN(c1nc3c(c(=O)[nH]1)CCNCC3)C2,-3.454,25.02
[H][C@@]12CN(C(=O)c3cccn3C)C[C@]1([H])OCCN2Cc1csc(C)n1,-3.751,-3.813 and -3.333
COc1ccc(OCCN2CCC(N3CCNC3=O)CC2)cc1,-39.99,-58.47
COc1ccc(CN(CCC#N)CCN2CCOCC2)cc1OC,-1.769,29.34
CCCc1cc(=O)[nH]c(-c2ccccc2CN(C)CCn2cccn2)n1,5.79,13.02